Reference: article PMC12931155, “Colorectal Cancer Cell's Weapon: RNF32 Engages SPP1^+ Macrophages to Foster Liver Metastasis, Targeted by Indole‐3‐Acetic Acid” (Advanced Science, 2025)
No constants are given. Whether binding was seen depends on the method and setting. For part of these data: Binding seen in cells or lysates may run through a third protein. Some binding calls cover weakened binding; strength is not graded here.

Chains of the proteins cited; added tags and fusions are not shown.
UniProt Q9H0A6: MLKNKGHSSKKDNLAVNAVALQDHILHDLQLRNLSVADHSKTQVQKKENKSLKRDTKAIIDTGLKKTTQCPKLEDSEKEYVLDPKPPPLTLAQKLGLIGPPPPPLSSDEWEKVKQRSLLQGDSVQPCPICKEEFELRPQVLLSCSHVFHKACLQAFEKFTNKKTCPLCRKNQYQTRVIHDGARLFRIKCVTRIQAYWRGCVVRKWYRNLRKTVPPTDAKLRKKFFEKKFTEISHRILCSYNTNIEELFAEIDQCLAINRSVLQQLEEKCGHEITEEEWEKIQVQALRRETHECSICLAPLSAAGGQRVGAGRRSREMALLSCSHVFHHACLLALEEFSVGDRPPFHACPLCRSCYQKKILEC
UniProt P49841: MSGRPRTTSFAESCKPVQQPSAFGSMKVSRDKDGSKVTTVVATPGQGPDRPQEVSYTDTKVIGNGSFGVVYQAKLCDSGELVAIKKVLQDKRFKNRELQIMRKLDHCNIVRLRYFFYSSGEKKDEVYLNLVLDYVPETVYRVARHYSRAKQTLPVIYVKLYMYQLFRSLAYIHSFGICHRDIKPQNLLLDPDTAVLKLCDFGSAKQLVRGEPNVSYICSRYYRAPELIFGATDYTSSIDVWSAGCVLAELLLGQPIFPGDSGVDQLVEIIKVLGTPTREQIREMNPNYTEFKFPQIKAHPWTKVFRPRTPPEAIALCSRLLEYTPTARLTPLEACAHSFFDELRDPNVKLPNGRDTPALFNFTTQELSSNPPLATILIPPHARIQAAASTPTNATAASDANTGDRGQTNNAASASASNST

Legend:
[1] = target: FLAG-tagged RNF32 (human) (UniProt Q9H0A6); assay: co-IP; 293T cells transfected with FLAG-RNF32 and HA-GSK3β plasmids (wild type or mutated), 24 h; IP lysis buffer; protein G agarose beads with antibodies overnight at 4 °C; washes with 300 mM or 150 mM NaCl; immunoblot
GST-GSK3β = GST-GSK3β (UniProt P49841); assay: pull-down; 50 µg GST-GSK3β or GST on glutathione Sepharose 4B beads, incubated with 20 µg purified Flag-RNF32; Western blot with anti-FLAG and anti-GST; both purified
HA-tagged GSK3β = HA-tagged GSK3β (UniProt P49841); assay: co-IP; 293T cells transfected with FLAG-RNF32 and HA-GSK3β plasmids (wild type or mutated), 24 h; IP lysis buffer; protein G agarose beads with antibodies overnight at 4 °C; washes with 300 mM or 150 mM NaCl; immunoblot

Substance: HA-tagged GSK3β (from UniProt P49841 1-420) (enzyme)
- binding [1]: binds

Substance: FLAG-RNF32 purified from E. coli (from UniProt Q9H0A6 1-362) (enzyme)
- binding (GST-GSK3β): binds

Substance: FLAG-tagged RNF32 (from UniProt Q9H0A6 1-362) (enzyme)
- binding (HA-tagged GSK3β): binds
